Results reported in the supplement of paper PMC4604168 (melanoma cell lines).
Some of the results follow. Single values are uncertain, as repeats are few or missing.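 The apoptosis fraction was the count of cleaved-PARP antibody-stained nuclei relative to all DNA-stained nuclei, imaged in 1,536-well plates. Screening doses were set so most cells survived, and baseline and induced cleaved-PARP levels vary greatly across cell lines.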

What was measured:
Experiment in all cases: cleaved PARP positive nuclei fraction relative to DMSO control; melanoma cells; higher = more apoptosis
Conditions in all cases: library dose: low library concentration; 72 h
[1] = tested on: 501Mel
[2] = tested on: A101D
[3] = tested on: A2058
[4] = tested on: A375
[5] = tested on: C32
[6] = tested on: CBRC008 (line from a melanoma biopsy)
[7] = tested on: CBRC013 (line from a melanoma biopsy)
[8] = tested on: CBRC014 (line from a melanoma biopsy)
[9] = tested on: CBRC016 (line from a melanoma biopsy)
[10] = tested on: CBRC017 (line from a melanoma biopsy)

Row | Structure (SMILES) | cleaved PARP positive nuclei fraction [1] | cleaved PARP positive nuclei fraction [2] | cleaved PARP positive nuclei fraction [3] | cleaved PARP positive nuclei fraction [4] | cleaved PARP positive nuclei fraction [5] | cleaved PARP positive nuclei fraction [6] | cleaved PARP positive nuclei fraction [7] | cleaved PARP positive nuclei fraction [8] | cleaved PARP positive nuclei fraction [9] | cleaved PARP positive nuclei fraction [10]
1 | CC1(C)NC(=O)N(c2ccc([N+](=O)[O-])c(C(F)(F)F)c2)C1=O [nilutamide] + O=C(Nc1cccc(Cl)c1)Nc1ncc(CCNc2ncnc3ccsc23)s1 [SNS314] (first compound 1 µM, partner dose 0.0008 µM) | 86% | 44.4% | 59.1% | 22.9% | 117% | 90.3% | 109% | 82.1% | 75.3% | 90.5%
2 | COCC[n+]1c2c(n(Cc3cnccn3)c1C)C(=O)c1ccccc1C2=O + CC(C)(C)c1cnc(CSc2cnc(NC(=O)C3CCNCC3)s2)o1 [SNS-032] (first compound 0.0004 µM, partner dose 0.01 µM) | 340% | 55.5% | 195% | 148% | 149% | 707% | 138% | 94% | 81.5% | 99.3%
3 | Cn1c(Nc2ccc(C(F)(F)F)cc2)nc2cc(Oc3ccnc(-c4ncc(C(F)(F)F)[nH]4)c3)ccc21 + OCCn1cc(-c2cnc3nnn(Cc4ccc5ncccc5c4)c3n2)cn1 [PF04217903] (first compound 0.08 µM, partner dose 1 µM) | 207% | 147% | 123% | 328% | 38.3% | 192% | 139% | 87.8% | 87.1% | 90.5%
4 | Cc1ccc(NC(=O)c2cccc(N(C)C)c2)cc1NC(=O)c1ccc(O)cc1 + C[C@@H]1CCN(C(=O)CC#N)C[C@@H]1N(C)c1ncnc2[nH]ccc12 [CP690550] (first compound 2 µM, partner dose 1 µM) | 285% | 235% | 55.3% | 165% | 191% | 104% | 72.1% | 102% | 116% | 110%
5 | OCCn1cc(-c2cnc3nnn(Cc4ccc5ncccc5c4)c3n2)cn1 + COc1cc2c(Oc3ccc4[nH]c(C)cc4c3F)ncnc2cc1OCCCN1CCCC1 [cediranib] (first compound 1 µM, partner dose 0.4 µM) | 142% | 36.4% | 76.1% | 117% | 143% | 124% | 94.6% | 85.1% | 41.5% | 128%
6 | OCc1c[nH]c2ccccc12 [Indole-3-carbinol] + Cc1cc(N2CCOCC2)cc2[nH]c(-c3c(NC[C@@H](O)c4cccc(Cl)c4)cc[nH]c3=O)nc12 [BMS536924] (first compound 0.8 µM, partner dose 0.2 µM) | 266% | 66.5% | 74.6% | 110% | 79.7% | 281% | 147% | 86.1% | 68.2% | 73.5%
7 | CC(=O)c1c(C)c2cnc(Nc3ccc(N4CCNCC4)cn3)nc2n(C2CCCC2)c1=O [palbociclib] + C=CCn1c(=O)c2cnc(Nc3ccc(N4CCN(C)CC4)cc3)nc2n1-c1cccc(C(C)(C)O)n1 [MK1775] (first compound 0.04 µM, partner dose 0.02 µM) | 96% | 113% | 44% | 357% | 153% | 78.4% | 61.9% | 111% | 163% | 76.8%
8 | Cn1nnc2c(C(N)=O)ncn2c1=O [temozolomide] + CN(C)S(=O)(=O)c1ccc2c(c1)/C(=C/c1cc3c([nH]1)CCCC3)C(=O)N2 [SU6656] (first compound 2 µM, partner dose 0.4 µM) | 83.5% | 100% | 126% | 81.5% | 149% | 121% | 89.4% | 118% | 191% | 160%
9 | Cc1nc(Nc2ncc(C(=O)Nc3c(C)cccc3Cl)s2)cc(N2CCN(CCO)CC2)n1 [dasatanib] + C[C@@H]1CCN(C(=O)CC#N)C[C@@H]1N(C)c1ncnc2[nH]ccc12 [CP690550] (first compound 0.004 µM, partner dose 1 µM) | 89.6% | 134% | 206% | 169% | 141% | 76.9% | 77.4% | 107% | 178% | 94.6%
10 | C=CCn1c(=O)c2cnc(Nc3ccc(N4CCN(C)CC4)cc3)nc2n1-c1cccc(C(C)(C)O)n1 + O=C(O)c1ccc(-c2c[nH]c3ncc(-c4ccccc4)cc23)cc1C1CCCC1 [GSK650394] (first compound 0.02 µM, partner dose 0.16 µM) | 104% | 47.6% | 134% | 137% | 156% | 107% | 78.3% | 118% | 154% | 135%
11 | C=CCn1c(=O)c2cnc(Nc3ccc(N4CCN(C)CC4)cc3)nc2n1-c1cccc(C(C)(C)O)n1 + COc1cc2c(Oc3ccc4[nH]c(C)cc4c3F)ncnc2cc1OCCCN1CCCC1 [cediranib] (first compound 0.02 µM, partner dose 0.4 µM) | 85.6% | 110% | 147% | 67.4% | 165% | 47.7% | 97.2% | 134% | 41.8% | 184%
12 | C=CCNC1=C2C[C@@H](C)C[C@H](OC)[C@H](O)[C@@H](C)/C=C(\C)[C@H](OC(N)=O)[C@@H](OC)/C=C\C=C(/C)C(=O)NC(=CC1=O)C2=O [Tanespimycin] + CO[C@@H]1[C@H](N(C)C(=O)c2ccccc2)C[C@H]2O[C@]1(C)n1c3ccccc3c3c4c(c5c6ccccc6n2c5c31)C(=O)NC4 [Midostaurin] (first compound 0.002 µM, partner dose 0.08 µM) | 95.3% | 66.6% | 68.4% | 43.5% | 187% | 97.6% | 102% | 83.7% | 116% | 89.8%
13 | C[C@@H]1CCN(C(=O)CC#N)C[C@@H]1N(C)c1ncnc2[nH]ccc12 + CN(C)S(=O)(=O)c1ccc2c(c1)/C(=C/c1cc3c([nH]1)CCCC3)C(=O)N2 [SU6656] (first compound 1 µM, partner dose 0.4 µM) | 95.2% | 95.4% | 119% | 54.1% | 70.4% | 44.7% | 107% | 103% | 74.3% | 69.7%
14 | C[C@]1(c2nc3c(C(N)=O)cccc3[nH]2)CCCN1 [Veliparib] + COc1cc(Nc2ncc(F)c(Nc3ccc4c(n3)NC(=O)C(C)(C)O4)n2)cc(OC)c1OC [Tamatinib] (first compound 1.4 µM, partner dose 0.4 µM) | 103% | 64.8% | 164% | 45.8% | 158% | 151% | 124% | 95.3% | 70.6% | 108%

Single records, from the list above. Order of values: cleaved PARP positive nuclei fraction [1]	cleaved PARP positive nuclei fraction [2]	cleaved PARP positive nuclei fraction [3]	cleaved PARP positive nuclei fraction [4]	cleaved PARP positive nuclei fraction [5]	cleaved PARP positive nuclei fraction [6]	cleaved PARP positive nuclei fraction [7]	cleaved PARP positive nuclei fraction [8]	cleaved PARP positive nuclei fraction [9]	cleaved PARP positive nuclei fraction [10]
Cn1c(Nc2ccc(C(F)(F)F)cc2)nc2cc(Oc3ccnc(-c4ncc(C(F)(F)F)[nH]4)c3)ccc21 + OCCn1cc(-c2cnc3nnn(Cc4ccc5ncccc5c4)c3n2)cn1 [PF04217903] (first compound 0.08 µM, partner dose 1 µM) in the list: 207%	147%	123%	328%	38.3%	192%	139%	87.8%	87.1%	90.5%
C=CCNC1=C2C[C@@H](C)C[C@H](OC)[C@H](O)[C@@H](C)/C=C(\C)[C@H](OC(N)=O)[C@@H](OC)/C=C\C=C(/C)C(=O)NC(=CC1=O)C2=O [Tanespimycin] + CO[C@@H]1[C@H](N(C)C(=O)c2ccccc2)C[C@H]2O[C@]1(C)n1c3ccccc3c3c4c(c5c6ccccc6n2c5c31)C(=O)NC4 [Midostaurin] (first compound 0.002 µM, partner dose 0.08 µM) in the list: 95.3%	66.6%	68.4%	43.5%	187%	97.6%	102%	83.7%	116%	89.8%
